# Assay results: PubChem BioAssay AID1347421 (Sanford-Burnham Center for Chemical Genomics, 2020)
# By UniProt entry, the sequences of proteins in these tests, tags left out. Where a name states a change or a piece, a line headed by the entry shows the natural chain unless it says otherwise.
# UniProt O00391: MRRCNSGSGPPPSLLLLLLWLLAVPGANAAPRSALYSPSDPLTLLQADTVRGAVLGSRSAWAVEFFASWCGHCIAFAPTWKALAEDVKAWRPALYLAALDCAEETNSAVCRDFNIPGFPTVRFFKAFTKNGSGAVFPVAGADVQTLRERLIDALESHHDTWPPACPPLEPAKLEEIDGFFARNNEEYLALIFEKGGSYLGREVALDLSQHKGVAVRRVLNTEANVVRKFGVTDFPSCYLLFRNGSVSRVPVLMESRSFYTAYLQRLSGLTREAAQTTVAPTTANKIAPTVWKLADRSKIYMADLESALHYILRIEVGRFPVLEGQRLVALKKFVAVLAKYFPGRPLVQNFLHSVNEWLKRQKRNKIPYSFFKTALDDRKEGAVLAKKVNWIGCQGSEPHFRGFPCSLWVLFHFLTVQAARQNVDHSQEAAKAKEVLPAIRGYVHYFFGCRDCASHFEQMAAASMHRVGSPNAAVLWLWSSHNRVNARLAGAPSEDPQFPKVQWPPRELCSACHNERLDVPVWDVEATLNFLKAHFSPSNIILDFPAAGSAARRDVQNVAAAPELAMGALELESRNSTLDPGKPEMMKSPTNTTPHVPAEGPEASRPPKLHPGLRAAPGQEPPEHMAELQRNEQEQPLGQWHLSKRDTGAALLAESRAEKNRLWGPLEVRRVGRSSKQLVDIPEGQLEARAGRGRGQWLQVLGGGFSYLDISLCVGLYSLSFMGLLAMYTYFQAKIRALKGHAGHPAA
# The full ranking holds about 1,500 compounds; the median of “activity” is about 2, and the lowest 2% start at about -18. The list shows a part of the results. Active and inactive are the calls of the source.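 The calls were made as follows: active = inhibition of at least 40% at 10 µM; inconclusive = no clear call, values can overlap the other calls; inactive = the rest.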
# Target: Sulfhydryl oxidase 1 (Homo sapiens) (UniProt O00391)
# Test: human QSOX1 sulfhydryl oxidase inhibition – biochemical, ROS-Glo luminescence, single concentration, confirmation (AID 1347421);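 also: 0% = DMSO wells with enzyme and 100% = wells lacking QSOX1 enzyme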
# Conditions: recombinant hQSOX1, RNase A substrate, ROS-Glo H2O2 luminescence; at 10 µM
row,Compound,activity
1,CC(Cn1cncn1)NC1CCN(c2cccc(-c3ccc(F)cc3)c2)CC1 (stereo unspecified),4.1%
2,CCOC(=O)N1CCN(C2CCCN(C(=O)CSC)C2)CC1 (stereo unspecified),inactive: -4.3%
3,CCCCc1ncc(CN2CCc3onc(-c4ccc5c(c4)OCO5)c3C2)[nH]1,4.2%
4,CC(C)(C)Cc1n[nH]c2c1CN(C(=O)c1coc3c1C(=O)CCC3)CC2,2.1%
5,COc1ccc(OCC(O)CN(C)C)c(CNCCOC(C)C)c1 (stereo unspecified),4.6%
6,CC12CCC(C(=O)Nc3cccc4cccnc34)(OC1=O)C2(C)C (stereo unspecified),inactive: -11.7%
7,COCCNCC1=C[C+]=C(N(C)C)C=C1,0.9%
8,COc1ccc2cc(-c3[nH]ncc3CN(CCO)Cc3cccs3)ccc2c1,inactive: -3.9%
9,CCN1CCN(CC(O)COc2cccc(CNCCCSC)c2)CC1 (stereo unspecified),9.1%
10,Cc1cccn2c(=O)c3cc(C(=O)N4CCN(C)CC4)n(C)c3nc12,7.5%
11,O=C(CCCn1nnnc1CN1CCc2ccccc2C1)NCCc1cscn1,2.9%
12,Cc1c(CN2CCOC(Cc3ccccc3Cl)C2)cnn1C (stereo unspecified),2.2%
13,CCOCCn1ccc(-c2cccc(-c3cc(N(C)C)ncn3)c2)n1,5.5%
14,CCS(=O)(=O)c1ncc(CN(CCO)Cc2ccccc2)n1Cc1ccccc1,3.5%
15,CN(C)c1cc(N2C[C@H]3OC(=O)N(CCCc4ccc(F)cc4)[C@H]3C2)ncn1,4.7%
16,COC(=O)c1ccc(-c2nc(CN3CCCCC3c3nccs3)c(C)o2)cc1 (stereo unspecified),0.5%
17,O=C(CCn1cncn1)N1CCc2onc(-c3ccc(C(F)(F)F)cc3)c2C1,4.5%
18,CCOC(=O)C1(Cc2ccc(OC)cc2)CCN(C(=O)c2cncs2)CC1,8.7%
19,O=C(CSc1ncc(-c2ccccc2)nn1)Nc1nccs1,inactive: -15.2%
20,O=C(CCC1CCCN(C(=O)c2ccco2)C1)NCc1ccccc1F (stereo unspecified),inactive: -0.1%
21,O=C(c1ccc(Cl)s1)N1CCC2(CCCN(CC3CC3)C2=O)C1 (stereo unspecified),10.4%
22,CSCC(=O)N1CCCC(Nc2ccc(C)c(C)c2)C1 (stereo unspecified),1.4%

row,Compound,activity
1,COc1cc(CNCc2ccccc2C)ccc1OCC(O)CN1CCOCC1 (stereo unspecified),1.7%
2,O=C(c1cc(-c2cn[nH]c2)nc2cc(F)ccc12)N1CC2C[C@@H]3CC1C[C@H](C2)C3,3.1%
3,CN(Cc1cccc(OCC(O)CN(C)C2CCCCC2)c1)C1CCOCC1 (stereo unspecified),8.4%
4,CCc1cc(C(=O)NC2CC(=O)N(CC(C)(C)C)C2)on1 (stereo unspecified),3.8%
5,CN(Cc1n[nH]c2c1CCCCC2)CC1(c2cccc(F)c2)CCOC1 (stereo unspecified),4%
6,Cc1cc(Cl)ccc1C(=O)C1CCCN(C(=O)C(=O)CC(C)C)C1 (stereo unspecified),0.4%
7,O=C(Cc1cn2ccsc2n1)N1CCOC(Cc2ccc(F)cc2)C1 (stereo unspecified),1.3%
8,NC(=O)C1CCN(CC(O)COc2ccc(-c3ccccc3)cc2)CC1 (stereo unspecified),3.4%
9,O=C(Cn1cccn1)NC1CCCN(C2CCCCCC2)C1 (stereo unspecified),inactive: -5.7%
10,Cc1ccc(S(=O)(=O)CC(=O)N2CCN(c3ccccc3)CC2)cc1,inactive: -17%
11,CCOc1ccc(NC(=O)NC2CCS(=O)(=O)C2)cc1 (stereo unspecified),inactive: -11.5%
12,COc1ccc(Cl)cc1NC(=O)CCC1CCCN(C(=O)CCc2cn[nH]c2)C1 (stereo unspecified),5.7%
13,C=CCN1CC(c2nc(-c3cnn(C)c3)c(C)[nH]2)CC1=O (stereo unspecified),2%
14,COCc1ccc(CNC2CC(=O)N(Cc3cccc4ccccc34)C2)o1 (stereo unspecified),inactive: -3.8%
15,COc1ccccc1OCCn1ncc(N2CCC(CN)CC2)cc1=O,0.2%
16,CCN(CC)C1CCN(Cc2ccc(-c3nc(C)c(F)c(=O)[nH]3)cc2)C1 (stereo unspecified),inactive: -4.5%
17,COc1ccc(OC)c(Cc2nnc(CCC(=O)N(C)CCC3CCCCO3)o2)c1 (stereo unspecified),inactive: -0.8%
18,CC(C)Oc1ccc(C(=O)N2CCC(CCC(=O)NC3CC3)CC2)cc1,3.9%
19,COc1cccc(-c2n[nH]c3c2CN(CCc2ccccc2)CC3)c1,5.1%
20,COc1ccccc1CCc1nnc(CCC(=O)NCCc2ccco2)o1,3.3%
21,CC(=O)n1nc(NCc2ccccc2)nc1NCc1ccccc1,inactive: -22%
22,COc1ccc(CNCCc2ccncc2)c(OCC(O)CN2CCCC2)c1 (stereo unspecified),inactive: 0%

# Part of the list above in order of SMILES length, largest number first.
row,Compound,activity
5,CN(Cc1n[nH]c2c1CCCCC2)CC1(c2cccc(F)c2)CCOC1 (stereo unspecified),4%
8,NC(=O)C1CCN(CC(O)COc2ccc(-c3ccccc3)cc2)CC1 (stereo unspecified),3.4%
13,C=CCN1CC(c2nc(-c3cnn(C)c3)c(C)[nH]2)CC1=O (stereo unspecified),2%
22,COc1ccc(CNCCc2ccncc2)c(OCC(O)CN2CCCC2)c1 (stereo unspecified),inactive: 0%
15,COc1ccccc1OCCn1ncc(N2CCC(CN)CC2)cc1=O,0.2%

# Additional entries:

row,Compound,activity
1,CCC1COCCN1C(=O)c1cc(-c2cnn(C)c2)nc2cc(C)ccc12 (stereo unspecified),1.5%
2,CC(C)CN(CC(C)C)C(=O)Nc1ccccc1F,8.8%
3,COc1cccc(-c2cccc(N3CCC(NC(C)c4cnn(C)c4)CC3)c2)c1 (stereo unspecified),0.2%
4,CCOC(=O)N1CCC(Nc2nncc(-c3ccc(C)o3)n2)CC1,6.3%
5,Cn1ncc(NCC2(c3cccc(F)c3)CCOC2)n1 (stereo unspecified),8.7%
6,Cc1nonc1CN(C)Cc1cccc(OCC(O)CN2CCOCC2)c1 (stereo unspecified),8.2%
7,COc1cccc(C(=O)C2CCCN(Cc3ccc4cccc(F)c4n3)C2)c1 (stereo unspecified),inactive: -23.5%
8,CCN1CCCC1CNC(=O)c1ccc(OC2CCN(C(=O)CCOC)CC2)cc1 (stereo unspecified),inactive: -2.5%
9,COC(=O)C1CCCCN1C(=O)c1ccc2oc(C(C)C)nc2c1 (stereo unspecified),4.4%
10,O=C(NCC(O)CO)c1ccc(OC2CCN(CCc3ccccc3)CC2)cc1 (stereo unspecified),inactive: -0.6%
11,O=C(Cc1ccccc1F)Nc1ccc2c(c1)CN(Cc1ccoc1)CC2,inactive: -1.9%
12,O=C(CCn1cnnn1)N1CCc2[nH]nc(-c3ccc(C(F)(F)F)cc3)c2C1,4.7%
13,O=C(c1cc(-c2cnn(CCO)c2)nc2cc(F)ccc12)N1C[C@H]2CC[C@H]1C2,1.1%
14,CN(Cc1cccc(OCC(O)CN2CCOCC2)c1)Cc1ccncn1 (stereo unspecified),11.2%
15,Cc1cccc(CN2CCCC3(CCN(C(=O)C4CCCCC4)C3)C2=O)c1 (stereo unspecified),6.9%
16,COc1cc(CNCCCSC)ccc1OCC(O)CN1CCCC1 (stereo unspecified),inactive: -1.3%
17,O=C(CCC1CCN(Cc2cc3ccccc3s2)CC1)N1CCOCC1,4.3%
18,O=C(CCc1ccsc1)N1CCOC(Cc2ccccc2Cl)C1 (stereo unspecified),20.5%
19,O=C1N(CC2CC2)CCCC12CCN(Cc1cccc(-n3cccn3)c1)C2 (stereo unspecified),inactive: -0.7%
20,O=C(NCCc1ccc(Cl)cc1)c1cccc(-n2cnnc2)c1,inactive: -1%
21,C=CCC1(CC=C)CCCN1C(=O)c1cn(CC2COc3ccccc3O2)nn1 (stereo unspecified),inactive: -0.3%
22,O=C(Nc1ccc(S(=O)(=O)NCC2CCCO2)cc1)N1CCCC1 (stereo unspecified),4.9%

# Four records picked at random from the list so far:
row,Compound,activity
10,O=C(NCC(O)CO)c1ccc(OC2CCN(CCc3ccccc3)CC2)cc1 (stereo unspecified),inactive: -0.6%
16,COc1cc(CNCCCSC)ccc1OCC(O)CN1CCCC1 (stereo unspecified),inactive: -1.3%
15,Cc1cccc(CN2CCCC3(CCN(C(=O)C4CCCCC4)C3)C2=O)c1 (stereo unspecified),6.9%
2,CC(C)CN(CC(C)C)C(=O)Nc1ccccc1F,8.8%

# The list continues.

row,Compound,activity
1,O=C(CCc1ccncc1)N1CCOC(Cc2ccccc2Cl)C1 (stereo unspecified),3.1%
2,O=C(NCCCn1nnc2ccccc21)C1CCC(=O)N(CCN2CCOCC2)C1 (stereo unspecified),inactive: -0.4%
3,COC(=O)C1CCN(CC(O)COc2cccc(CN(C)Cc3cccnc3)c2)CC1 (stereo unspecified),4.5%
4,Fc1cccc(C2(CNc3ccnn3Cc3ccco3)CCOC2)c1 (stereo unspecified),2.5%
5,CC(C)(C)CN1CCCC2(CCN(Cc3nc(-c4ccccc4)no3)C2)C1=O (stereo unspecified),3.2%
6,COc1ccc(C(=O)C2CCCN(Cc3ccc4cc(F)ccc4n3)C2)cc1OC (stereo unspecified),1.1%
7,c1cncc(CN2CCN(c3nc4nonc4nc3N3CCOCC3)CC2)c1,1.4%
8,Cc1ccc(S(=O)(=O)NCc2cccs2)cc1C,0.8%
9,COc1ccc(S(=O)(=O)N2CCCC(C(=O)NC3CC3)C2)cc1OC (stereo unspecified),inactive: -18.9%
10,COc1nc2ccccc2nc1CCC(=O)NC1CCCCCC1,inactive: -2.6%
11,CN(C)CCC1CN(Cc2ccc(Cn3cccn3)cc2)CCO1 (stereo unspecified),5.4%
12,CCC(=O)N1CCCC(C(=O)Nc2ccccc2Oc2cccnc2)C1 (stereo unspecified),0.4%
13,Fc1cccc(C2(CN3CCCO3)CCOC2)c1 (stereo unspecified),7.3%
14,CCS(=O)(=O)c1ncc(CN2CCC(OCc3ccccc3)CC2)n1CCOC,24.8%
15,O=C(NC1CCCC1)c1ccc(OC2CCN(C(=O)C3CCOC3)CC2)c(Cl)c1 (stereo unspecified),6.6%
16,O=C(c1cn(Cc2ccc(Cl)cc2)nn1)N1CCC(C(=O)N2CCCC2)CC1,inactive: -2.4%
17,O=C1CC(C(=O)N2CCC(Oc3ccc(C(=O)NCCc4ccccc4)cc3)CC2)CN1 (stereo unspecified),3.2%
18,COC(=O)CCCNC(=O)CC1C(=O)NCCN1Cc1ccccc1OC (stereo unspecified),4.7%
19,COc1ccccc1CCN1CCC(CN(C)C(=O)c2cscn2)CC1,inactive: -1.8%
20,CSCc1ccc(C(=O)N2CCC3(CCCN(CC(C)(C)C)C3)C2)o1 (stereo unspecified),inactive: -0.7%
21,O=C(c1cn(Cc2ccccc2C(F)(F)F)nn1)N1CCCCCC1,2.1%
22,COc1cc2c(cc1OC)CN(C1CCCN(C(=O)c3csnn3)C1)CC2 (stereo unspecified),9.3%

row,Compound,activity
1,CCn1ccnc1Cn1ccc(-c2cccc(-c3nccs3)c2)n1,inactive: -7.8%
2,CCN1CCN(C(=O)CCC2CCN(C(=O)c3[nH]c(C)cc3C)CC2)CC1,1.7%
3,Cc1n[nH]c(C)c1CCN(C)C(=O)c1cn(Cc2ccccc2F)nn1,1.2%
4,CC(C)Cc1cc(CN2CCCC(CCC(=O)N3CCOCC3)C2)[nH]n1 (stereo unspecified),3.4%
5,CC(C)NC(=O)C(C)Oc1ccc(S(N)(=O)=O)cc1 (stereo unspecified),inactive: -12.8%
6,O=C1CC(NCc2cccc(O)c2)CN1CCc1cccc(Cl)c1 (stereo unspecified),1.5%
7,CCN(CC)CC(=O)NCc1cccnc1N1CCN(c2ccccc2C)CC1,2%
8,NS(=O)(=O)C1=[C+]C=C(CCNCc2ccc(Br)cc2)C=C1,inactive: -0.1%
9,CN(C)CCC1CN(C(=O)CSc2ccccc2)CCO1 (stereo unspecified),4.2%
10,COc1cc(-c2nc(CN(CCO)Cc3cccs3)c(C)o2)cc2c1OCO2,9.2%
11,COc1ccccc1C(=O)C1CCCN(Cc2cccc(OCCO)c2)C1 (stereo unspecified),inactive: -3.3%
12,CCCCOc1ccccc1C(=O)Nc1ccccc1C(N)=O,2.2%
13,Cc1noc(C)c1CC(=O)NCc1cccnc1-n1cnc2ccccc21,19.8%
14,COCCN(CC1CCN(Cc2ccccc2F)CC1)C(=O)CCn1nccc1C,inactive: -3.3%
15,CC(C)Oc1cccc(C(=O)N2CC(C)OC(C)C2)c1 (stereo unspecified),0.9%
16,COc1ccccc1C1CCCN1C(=O)Cn1ncc(N2CCNCC2)cc1=O (stereo unspecified),2.6%
17,CCN(C)C(=O)c1cc(-c2cnn(C(C)C)c2)nc2cc(Cl)ccc12,0.7%
18,c1csc(CNc2nc3nonc3nc2N2CCCC2c2nccs2)c1 (stereo unspecified),1.6%
